PubChem BioAssay AID1259308 – NCATS – 2017

Screen: 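Knock-downs that increase output of a recombinant reporter protein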 (primary screen)
System: human HEK293 embryonic kidney cells stably expressing firefly luciferase (HEK-CMV-Luc2-Hygro)
Reagents: single siRNA against human genes, 0.8 pmol siRNA per well
Timing: 72 h
Detection: 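Luciferase light (ONE-Glo) measured on one replicate plate set and viability (CellTiter-Glo) on the other, scaled to a negative control siRNA, with robust z-scores and luciferase per cell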
Direction: total luciferase, z-score: higher = more reporter protein produced
Active means: 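An siRNA counts as active if its total luciferase robust z-score exceeds 3; genes with two or more such siRNAs out of three were retested with fresh siRNAs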
Calls: active = raised luciferase; inactive = no rise
This is a random part of about 59,000 deposited reagents. In the full data, about 1,510 (2.6%) are marked active. 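Calls use total luciferase alone and ignore viability, so some active siRNAs may act by altering cell number.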 A number with no mark means an inactive call. The numbers tell different reagents against one gene apart. Not all columns of the deposit are shown. Reagent sequences are not shown.

The opening 3 records, ahead of the listing:
gene | siRNA no. | total luciferase, z-score
C10orf95 (GeneID 79946) | 1 | 0.13
C10orf95 (GeneID 79946) | 2 | -0.653
C10orf95 (GeneID 79946) | 3 | 0.191

Results, from the start:
gene | siRNA no. | total luciferase, z-score
C10orf95 (GeneID 79946) | 1 | 0.13
C10orf95 (GeneID 79946) | 2 | -0.653
C10orf95 (GeneID 79946) | 3 | 0.191
PKD1L1 (GeneID 168507) | 1 | 0.271
PKD1L1 (GeneID 168507) | 2 | 1.81
PKD1L1 (GeneID 168507) | 3 | 1.66
RPL5P1 (GeneID 647436) | 1 | -2.88
RPL5P1 (GeneID 647436) | 2 | -1
RPL5P1 (GeneID 647436) | 3 | -3.09
PLA2G12B (GeneID 84647) | 1 | -1.21
PLA2G12B (GeneID 84647) | 2 | 0.384
PLA2G12B (GeneID 84647) | 3 | -0.374
ZNF493 (GeneID 284443) | 1 | 0.2
ZNF493 (GeneID 284443) | 2 | -0.562
ZNF493 (GeneID 284443) | 3 | -1.55
SNX25 (GeneID 83891) | 1 | -0.785
SNX25 (GeneID 83891) | 2 | 1.48
SNX25 (GeneID 83891) | 3 | -1.35
CDCA7L (GeneID 55536) | 1 | -0.185
CDCA7L (GeneID 55536) | 2 | -1.07
CDCA7L (GeneID 55536) | 3 | 0.986
NME8 (GeneID 51314) | 1 | 0.0843
NME8 (GeneID 51314) | 2 | 0.329
NME8 (GeneID 51314) | 3 | 0.0274
SNAPC1 (GeneID 6617) | 1 | 0.356
SNAPC1 (GeneID 6617) | 2 | -0.126
SNAPC1 (GeneID 6617) | 3 | -0.28
CCDC157 (GeneID 550631) | 1 | -0.678
CCDC157 (GeneID 550631) | 2 | -0.862
CCDC157 (GeneID 550631) | 3 | 0.274
SMARCA2 (GeneID 6595) | 1 | -0.174
SMARCA2 (GeneID 6595) | 2 | -0.193
SMARCA2 (GeneID 6595) | 3 | -0.764
PCGF6 (GeneID 84108) | 1 | -0.471
PCGF6 (GeneID 84108) | 2 | -0.659
PCGF6 (GeneID 84108) | 3 | -1.12
ITGA5 (GeneID 3678) | 1 | -1.29
ITGA5 (GeneID 3678) | 2 | 0.52
ITGA5 (GeneID 3678) | 3 | -0.217
OR10H3 (GeneID 26532) | 1 | 0.533
OR10H3 (GeneID 26532) | 2 | -0.193
OR10H3 (GeneID 26532) | 3 | -0.754
DSG4 (GeneID 147409) | 1 | -0.211
DSG4 (GeneID 147409) | 2 | -0.231
DSG4 (GeneID 147409) | 3 | -0.943
MSL2 (GeneID 55167) | 1 | 1.75
MSL2 (GeneID 55167) | 2 | 0.288
MSL2 (GeneID 55167) | 3 | 0.0463
GOLGA8EP (GeneID 390535) | 1 | -0.504
GOLGA8EP (GeneID 390535) | 2 | 0.802
GOLGA8EP (GeneID 390535) | 3 | -0.0338
BMAL1 (GeneID 406) | 1 | 0.204
BMAL1 (GeneID 406) | 2 | 0.649
BMAL1 (GeneID 406) | 3 | 1.91
PLCXD1 (GeneID 55344) | 1 | -1.62
PLCXD1 (GeneID 55344) | 2 | 1.92
PLCXD1 (GeneID 55344) | 3 | -2.93
